Results deposited as PubChem BioAssay AID1259425 (University of Nebraska Medical Center, 2018).
Screen: 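Seek colon cancer weak points whose silencing resembles KSR1 loss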 (primary screen). System: HCT116 human colon cancer cells. Knock-down reagent: siRNA pool against human genes, 50 nM siRNA. Detection: 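mRNA of six signature genes measured together by branched-DNA assay after 50 nM siRNA pool, blank removed, divided by geometric mean of two housekeeping genes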. Direction: BNIP3L mRNA: higher = more BNIP3L transcript after knockdown.
Shown is an unselected part of about 14,000 reagents. Further read-outs or replicates are left out here. The record does not give: the time to read-out.

| target gene | BNIP3L mRNA, set 1 |
| --- | --- |
| ZC3H15 | 0.0621 |
| ALS2 | 0.0591 |
| COL4A6 | 0.0747 |
| SPP2 | 0.116 |
| LAGE3 | 0.0983 |
| KLHL2 | 0.0775 |
| GFI1 | 0.137 |
| CLTCL1 | 0.118 |
| RPP14 | 0.0729 |
| NRXN1 | 0.158 |
| DMXL1 | 0.165 |
| KRTAP1-5 | 0.383 |
| CPSF3 | 0.193 |
| MRPS2 | 0.178 |
| TGIF2 | 0.0881 |
| LAMA3 | 0.085 |
| CCDC90B | 0.116 |
| ALKBH6 | 0.1 |
| BLVRB | 0.141 |
| RAB23 | 0.149 |

In a second layout: 3 of the entries above
target gene	BNIP3L mRNA, set 1
ALKBH6	0.1
BLVRB	0.141
RAB23	0.149
